Assay results published in article doi:10.1101/2021.01.15.426901.
Results are given in words; binding and its absence hold for the method and conditions named. In cells and extracts the contact can be indirect. Binding calls can cover weak binding; strength is not graded here.

By UniProt entry, the sequences of proteins in these tests, tags left out. Where a name states a change or a piece, a line headed by the entry shows the natural chain unless it says otherwise.
UniProt Q562E2: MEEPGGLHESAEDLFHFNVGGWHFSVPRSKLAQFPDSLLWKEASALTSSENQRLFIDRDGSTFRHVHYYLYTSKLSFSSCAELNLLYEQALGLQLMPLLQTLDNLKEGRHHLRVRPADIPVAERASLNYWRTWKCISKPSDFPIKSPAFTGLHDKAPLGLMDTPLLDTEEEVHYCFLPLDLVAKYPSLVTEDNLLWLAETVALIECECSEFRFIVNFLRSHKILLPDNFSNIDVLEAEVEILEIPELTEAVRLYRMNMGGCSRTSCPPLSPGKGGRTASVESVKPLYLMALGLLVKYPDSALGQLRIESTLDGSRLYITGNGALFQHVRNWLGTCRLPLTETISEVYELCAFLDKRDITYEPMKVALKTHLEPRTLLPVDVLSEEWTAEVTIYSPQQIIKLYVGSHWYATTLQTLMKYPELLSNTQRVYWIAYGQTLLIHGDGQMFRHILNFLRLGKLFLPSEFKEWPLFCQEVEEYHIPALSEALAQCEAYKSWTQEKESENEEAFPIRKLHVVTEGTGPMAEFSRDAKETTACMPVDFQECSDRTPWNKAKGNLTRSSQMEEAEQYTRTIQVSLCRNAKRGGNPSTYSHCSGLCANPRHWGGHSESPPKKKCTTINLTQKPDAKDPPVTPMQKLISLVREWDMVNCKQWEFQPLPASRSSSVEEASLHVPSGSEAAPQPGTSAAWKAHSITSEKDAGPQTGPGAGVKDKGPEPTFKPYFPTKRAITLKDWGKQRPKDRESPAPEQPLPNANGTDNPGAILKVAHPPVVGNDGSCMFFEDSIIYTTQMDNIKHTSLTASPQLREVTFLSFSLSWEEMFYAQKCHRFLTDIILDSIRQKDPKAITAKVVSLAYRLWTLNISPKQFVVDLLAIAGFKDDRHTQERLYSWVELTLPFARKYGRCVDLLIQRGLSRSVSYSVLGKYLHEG
UniProt O09106: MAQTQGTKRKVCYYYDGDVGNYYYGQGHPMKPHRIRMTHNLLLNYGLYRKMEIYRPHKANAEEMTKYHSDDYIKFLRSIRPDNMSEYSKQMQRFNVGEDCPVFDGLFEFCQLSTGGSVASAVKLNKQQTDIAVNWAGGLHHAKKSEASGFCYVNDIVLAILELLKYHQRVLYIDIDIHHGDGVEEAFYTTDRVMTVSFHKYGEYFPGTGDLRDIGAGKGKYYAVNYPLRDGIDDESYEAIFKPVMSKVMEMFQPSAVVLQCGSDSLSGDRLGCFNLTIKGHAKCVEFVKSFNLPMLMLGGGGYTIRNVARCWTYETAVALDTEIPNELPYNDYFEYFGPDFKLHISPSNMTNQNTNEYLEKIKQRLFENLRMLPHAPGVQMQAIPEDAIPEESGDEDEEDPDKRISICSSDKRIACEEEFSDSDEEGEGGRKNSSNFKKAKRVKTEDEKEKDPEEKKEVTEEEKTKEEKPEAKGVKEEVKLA
UniProt P70288: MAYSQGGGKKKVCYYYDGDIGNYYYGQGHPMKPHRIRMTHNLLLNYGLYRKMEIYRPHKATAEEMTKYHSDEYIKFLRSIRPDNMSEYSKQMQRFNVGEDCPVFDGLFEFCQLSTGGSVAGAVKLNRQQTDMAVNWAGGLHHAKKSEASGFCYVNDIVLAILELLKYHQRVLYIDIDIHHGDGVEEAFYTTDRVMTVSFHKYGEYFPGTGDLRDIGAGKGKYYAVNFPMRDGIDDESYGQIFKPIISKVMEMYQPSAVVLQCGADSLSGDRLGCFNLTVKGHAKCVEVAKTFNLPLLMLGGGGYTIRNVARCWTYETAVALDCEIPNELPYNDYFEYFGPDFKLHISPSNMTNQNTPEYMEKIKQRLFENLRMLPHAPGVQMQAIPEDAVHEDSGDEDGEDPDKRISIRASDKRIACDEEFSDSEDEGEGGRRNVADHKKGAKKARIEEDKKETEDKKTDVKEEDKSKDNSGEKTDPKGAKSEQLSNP

T1: ZFP541 (mouse (endogenous in testis)) (UniProt Q0GGX2)
T1 sequence: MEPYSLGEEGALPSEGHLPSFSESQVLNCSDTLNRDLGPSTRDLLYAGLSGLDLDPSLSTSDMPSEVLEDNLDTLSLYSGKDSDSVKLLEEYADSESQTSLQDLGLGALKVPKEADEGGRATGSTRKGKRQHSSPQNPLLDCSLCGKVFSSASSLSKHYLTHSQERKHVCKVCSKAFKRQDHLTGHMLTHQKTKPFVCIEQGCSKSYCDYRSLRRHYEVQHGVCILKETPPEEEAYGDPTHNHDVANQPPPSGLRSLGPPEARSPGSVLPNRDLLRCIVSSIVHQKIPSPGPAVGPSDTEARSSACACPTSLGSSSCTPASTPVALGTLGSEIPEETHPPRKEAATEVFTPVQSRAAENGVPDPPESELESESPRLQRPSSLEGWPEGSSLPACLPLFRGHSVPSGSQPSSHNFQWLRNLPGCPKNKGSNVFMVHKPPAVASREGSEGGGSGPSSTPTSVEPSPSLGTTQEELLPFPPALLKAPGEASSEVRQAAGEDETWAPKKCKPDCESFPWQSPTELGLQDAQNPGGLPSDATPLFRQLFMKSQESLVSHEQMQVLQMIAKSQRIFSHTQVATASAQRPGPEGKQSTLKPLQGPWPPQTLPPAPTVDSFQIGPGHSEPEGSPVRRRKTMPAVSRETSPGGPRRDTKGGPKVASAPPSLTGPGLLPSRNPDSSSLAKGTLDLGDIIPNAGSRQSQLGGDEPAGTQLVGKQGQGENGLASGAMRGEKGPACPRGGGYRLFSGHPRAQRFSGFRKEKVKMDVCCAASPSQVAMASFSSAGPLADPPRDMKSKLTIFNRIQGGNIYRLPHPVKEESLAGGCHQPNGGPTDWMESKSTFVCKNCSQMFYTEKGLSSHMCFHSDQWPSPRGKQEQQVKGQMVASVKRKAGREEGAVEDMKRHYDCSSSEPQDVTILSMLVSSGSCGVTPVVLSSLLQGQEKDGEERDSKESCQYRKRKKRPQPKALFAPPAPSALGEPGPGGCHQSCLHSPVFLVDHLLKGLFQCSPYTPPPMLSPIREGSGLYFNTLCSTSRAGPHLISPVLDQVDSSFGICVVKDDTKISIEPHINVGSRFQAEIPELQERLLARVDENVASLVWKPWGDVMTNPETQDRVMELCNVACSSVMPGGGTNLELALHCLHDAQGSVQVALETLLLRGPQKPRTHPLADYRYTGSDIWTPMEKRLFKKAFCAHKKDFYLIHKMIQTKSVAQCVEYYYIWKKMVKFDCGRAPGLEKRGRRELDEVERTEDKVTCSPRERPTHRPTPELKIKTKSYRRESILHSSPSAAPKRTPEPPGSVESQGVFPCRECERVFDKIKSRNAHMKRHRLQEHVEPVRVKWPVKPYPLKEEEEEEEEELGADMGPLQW


Tests used:
[1] = target: KCTD19 (mouse (endogenous in testis)) (UniProt Q562E2); assay: co-IP
[2] = target: T1, ZFP541 (mouse (endogenous in testis)); assay: co-IP

Row | Molecule | binding [1] | binding [2]
1 | KCTD19 (from UniProt Q562E2-2) | – | binds
2 | terminal deoxynucleotidyltransferase interacting factor 1 (TDIF1) (protein, UniProt Q99LB0 1-328) MGATGDTEQPRGPGGAERGGLELGDAGAAGQPVLTNPWNIMIKHRQVQRRGRRSQMTTSFTDPAISMDLLRAVLQPSINEEIQGVFNKYMKFFQKAALNVRDNVGEEVDAEQLIQEACRSCLEQAKLLFSDGEKVIPRLAHELPGIKRGRQAEEESHRGSPIPKKRKGRPPGHVLSNDRAAAGMVWKQKSCEPIRREGPKWDPARLNESTTFVLGSRANKALGMGGTRGRIYIKHPHLFKYAADPQDKHWLAEQHHMRATGGKMAYLLIEEDIRDLAASDDYRGCLDLKLEELKSFVLPSWMVEKMRKYMETLRTENEHRAAEAPPQT | binds | –
3 | ZFP541 (protein, UniProt Q0GGX2 1-1363) MEPYSLGEEGALPSEGHLPSFSESQVLNCSDTLNRDLGPSTRDLLYAGLSGLDLDPSLSTSDMPSEVLEDNLDTLSLYSGKDSDSVKLLEEYADSESQTSLQDLGLGALKVPKEADEGGRATGSTRKGKRQHSSPQNPLLDCSLCGKVFSSASSLSKHYLTHSQERKHVCKVCSKAFKRQDHLTGHMLTHQKTKPFVCIEQGCSKSYCDYRSLRRHYEVQHGVCILKETPPEEEAYGDPTHNHDVANQPPPSGLRSLGPPEARSPGSVLPNRDLLRCIVSSIVHQKIPSPGPAVGPSDTEARSSACACPTSLGSSSCTPASTPVALGTLGSEIPEETHPPRKEAATEVFTPVQSRAAENGVPDPPESELESESPRLQRPSSLEGWPEGSSLPACLPLFRGHSVPSGSQPSSHNFQWLRNLPGCPKNKGSNVFMVHKPPAVASREGSEGGGSGPSSTPTSVEPSPSLGTTQEELLPFPPALLKAPGEASSEVRQAAGEDETWAPKKCKPDCESFPWQSPTELGLQDAQNPGGLPSDATPLFRQLFMKSQESLVSHEQMQVLQMIAKSQRIFSHTQVATASAQRPGPEGKQSTLKPLQGPWPPQTLPPAPTVDSFQIGPGHSEPEGSPVRRRKTMPAVSRETSPGGPRRDTKGGPKVASAPPSLTGPGLLPSRNPDSSSLAKGTLDLGDIIPNAGSRQSQLGGDEPAGTQLVGKQGQGENGLASGAMRGEKGPACPRGGGYRLFSGHPRAQRFSGFRKEKVKMDVCCAASPSQVAMASFSSAGPLADPPRDMKSKLTIFNRIQGGNIYRLPHPVKEESLAGGCHQPNGGPTDWMESKSTFVCKNCSQMFYTEKGLSSHMCFHSDQWPSPRGKQEQQVKGQMVASVKRKAGREEGAVEDMKRHYDCSSSEPQDVTILSMLVSSGSCGVTPVVLSSLLQGQEKDGEERDSKESCQYRKRKKRPQPKALFAPPAPSALGEPGPGGCHQSCLHSPVFLVDHLLKGLFQCSPYTPPPMLSPIREGSGLYFNTLCSTSRAGPHLISPVLDQVDSSFGICVVKDDTKISIEPHINVGSRFQAEIPELQERLLARVDENVASLVWKPWGDVMTNPETQDRVMELCNVACSSVMPGGGTNLELALHCLHDAQGSVQVALETLLLRGPQKPRTHPLADYRYTGSDIWTPMEKRLFKKAFCAHKKDFYLIHKMIQTKSVAQCVEYYYIWKKMVKFDCGRAPGLEKRGRRELDEVERTEDKVTCSPRERPTHRPTPELKIKTKSYRRESILHSSPSAAPKRTPEPPGSVESQGVFPCRECERVFDKIKSRNAHMKRHRLQEHVEPVRVKWPVKPYPLKEEEEEEEEELGADMGPLQW | binds | –

Results, then the molecule that gave them:

Row | binding [1] | binding [2] | Molecule
4 | binds | – | HDAC1 (from UniProt O09106 1-482) (enzyme)
5 | binds | – | HDAC2 (from UniProt P70288 1-488) (enzyme)
